Test results: publication PMC6889377
Results are given in words; binding and its absence hold for the method and conditions named. In cells and extracts the contact can be indirect. Some entries that bind do so weakly or less than the wild type. Tags and fused reporters may be left off the sequences shown.

Target: T1, Flag-ELP5 (Elongator complex subunit 5) (UniProt Q8TE02)
T1 sequence: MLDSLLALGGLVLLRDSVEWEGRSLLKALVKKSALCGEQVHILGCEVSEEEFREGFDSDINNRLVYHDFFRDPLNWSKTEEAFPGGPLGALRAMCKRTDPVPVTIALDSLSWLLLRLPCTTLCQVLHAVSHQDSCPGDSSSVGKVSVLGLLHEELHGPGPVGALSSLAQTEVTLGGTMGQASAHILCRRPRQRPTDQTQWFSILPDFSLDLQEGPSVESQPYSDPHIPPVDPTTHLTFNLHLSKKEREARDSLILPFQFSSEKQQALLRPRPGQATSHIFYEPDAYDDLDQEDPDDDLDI
Test: co-IP; GBC cells transfected with Flag-ELP5 for 48 h; IP lysis buffer (50 mM Tris-HCl pH 8.0, 150 mM NaCl, 1 mM EDTA, 0.5% NP-40, protease inhibitors); Anti-Flag M2 affinity gel overnight at 4 °C; immunoblotting

binding: binds
B1: ELP4 (protein, UniProt Q96EB1 1-424)
chain: MAAVATCGSVAASTGSAVATASKSNVTSFQRRGPRASVTNDSGPRLVSIAGTRPSVRNGQLLVSTGLPALDQLLGGGLAVGTVLLIEEDKYNIYSPLLFKYFLAEGIVNGHTLLVASAKEDPANILQELPAPLLDDKCKKEFDEDVYNHKTPESNIKMKIAWRYQLLPKMEIGPVSSSRFGHYYDASKRMPQELIEASNWHGFFLPEKISSTLKVEPCSLTPGYTKLLQFIQNIIYEEGFDGSNPQKKQRNILRIGIQNLGSPLWGDDICCAENGGNSHSLTKFLYVLRGLLRTSLSACIITMPTHLIQNKAIIARVTTLSDVVVGLESFIGSERETNPLYKDYHGLIHIRQIPRLNNLICDESDVKDLAFKLKRKLFTIERLHLPPDLSDTVSRSSKMDLAESAKRLGPGCGMMAGGKKHLDF
